Laboratory results reported in patent publication US8378115B2, “Monomethine dyes” (Thermo Fisher Scientific (Milwaukee) LLC, priority 2007, dated 2013).

Legend:
Type in all cases: binding
[1] = test system: 40mer dsDNA; experiment: Fluorescence enhancement of dye with 40mer dsDNA
Protocol: (§1) Stock solutions (8 mM) of each dye were prepared by dissolving each compound in dimethylsulfoxide (DMSO). Stock dye solutions were diluted to a desired concentration in tris-EDTA (TE) buffer (10 mM Tris, 1 mM EDTA, pH 8.0) immediately prior to use.
(§2) Stock solutions of λDNA and 40mer synthetic oligonucleotides (dsDNA and ssDNA), each at a concentration of 40 μM, were prepared in TE buffer. All DNA concentrations described are in base pairs of nucleotides. The DNA stock solutions were diluted to a desired concentration in TE buffer before being mixed with diluted dye solutions.
(§3) Fluorescence enhancement measurements of each dye were obtained by incubating dyes with λDNA, 40mer dsDNA, or 40mer ssDNA at a final concentration of 0.8 μM dye and 3.2 μM DNA for one minute. Fluorescence scans of the samples were performed with excitation wavelengths corresponding to the absorption maxima of the dyes. The resulting fluorescence intensities were compared to fluorescence intensities of Thiazole Orange (TO) and a compound equivalent to SYBR Green without the side chain (V02-06101), shown below,
(§4) [drawing 15] binding to λDNA, 40mer dsDNA, or 40mer ssDNA at a final concentration of 0.8 μM TO and 3.2 μM DNA for one minute, the same as for the tested dyes. The discrimination ratio between dsDNA and ssDNA was calculated by comparing the fluorescence intensities.

[2] = test system: 40-mer ss-DNA; experiment: Absorption spectra of dye-DNA complex, 40-mer ss-DNA
[3] = test system: 40-mer ds-DNA; experiment: Absorption spectra of dye-DNA complex, 40-mer ds-DNA
[4] = test system: λDNA; experiment: Fluorescence enhancement of dye with λDNA; conditions: λ DNA (Table 3)
Protocol: as §1, §2, §3, §4

[5] = test system: λ DNA; experiment: Absorption spectra of dye-DNA complex, λ DNA; conditions: 8 μM dye, 8 μM DNA, TE buffer (Table 2)
[6] = test system: 40mer ssDNA; experiment: Fluorescence of dye with 40mer ssDNA; conditions: 40-mer ss-DNA (Table 5)
[7] = test system: rRNA; experiment: Absorption spectra of dye in the presence of rRNA; conditions: rRNA (Table 4)
[8] = test system: rRNA; experiment: Fluorescence of dye with rRNA; conditions: for λem: rRNA (Table 5)
[9] = 40-mer ss-DNA, 8 μM dye, 8 μM DNA, TE buffer (Table 2)
[10] = 40-mer ds-DNA, 8 μM dye, 8 μM DNA, TE buffer (Table 2)

SMILES	λem ([1]; 40-mer ds-DNA (Table 3))	λex [2, 9]	ε [3, 10]	λex [3, 10]	λem [4]	λex [5]	λem ([1]; 40-mer ds-DNA (Table 5))	λem [6]	ε [7]	λex [7]	λex ([2]; 40-mer ss-DNA (Table 4))	ε ([3]; 40-mer ds-DNA (Table 4))	λex ([3]; 40-mer ds-DNA (Table 4))	λem [8]	maximum emission of dye/DNA complex ([1]; FIG. 9)	red shift between RNA and DNA binding [8]	fluorescence of dye by itself ([8]; FIG. 9)	maximum emission in the presence of rRNA ([8]; FIG. 9)
CCN(CC)c1ccc2c(C=C3Sc4ccccc4N3CC)cc(C(C)(C)C)[o+]c2c1 [Dye V02-06124]	568 nm	509 nm	22,063	521 nm	568 nm	526 nm	–	–	–	–	–	–	–	–	–	–	–	–
CCN1c2cc3[o+]c(N(C)CCCN(C)C)cc(/C=C4\Sc5ccccc5N4C)c3cc2C(C)=CC1(C)C [Dye V12-02144]	548 nm	448 nm	22,356	488 nm	546 nm	492 nm	546 nm	553 nm	21,445	449 (493 nm	448 nm	22,356	488 nm	551 nm	–	–	–	–
CCN(CC)c1ccc2c(/C=C3\Sc4ccccc4N3C)cc(N3CC[N+](C)(CCO)CC3)[o+]c2c1 [Dye V11-03001]	540 nm	489 nm	41,096	489 nm	540 nm	489 nm	540 nm	540 nm	36,499	552 nm	489 nm	41,096	489 nm	552 nm	540 nm	12 nm	not fluorescent by itself	552 nm
CCN(CC)c1ccc2c(c1)O/C(=C\c1cc(N(C)CCCN(C)C)[o+]c3cc(N(CC)CC)ccc13)C=C2C [Dye V13-01026]	635 nm	550 (593s) nm	25,110	550 (593s) nm	635 nm	545 (593s) nm	–	–	–	–	–	–	–	–	–	–	–	–
CN1C(=Cc2cc[n+](C)c3ccccc23)Sc2ccccc21 [TO, Thiazole Orange, reference compound]	530 nm	475 (499s) nm	32,613	502 (485s) nm	530 nm	504 (485s) nm	530 nm	535 nm	–	–	475 (499s) nm	32,613	502 (485s) nm	533 nm	–	–	–	–
CCN1C(=Cc2cc(-c3ccccc3)[o+]c3cc(OC)ccc23)Sc2ccccc21 [Dye V02-06132]	–	487 nm	14,800	488 nm	–	494 nm	–	–	24,235	475 nm	494 nm	14,800	488 nm	–	–	–	–	–
CCN(CC)c1ccc2c(/C=C3\Sc4ccccc4N3CC)cc(-c3ccccc3)[o+]c2c1 [Dye V02-06187]	610 nm	529 (560s) nm	15,800	529 (560s) nm	610 nm	531 (560s) nm	–	–	–	–	–	–	–	–	–	–	–	–
CCN(CC)c1ccc2c(N(C)CCCN(C)C)cc(/C=C3\Sc4ccccc4N3C)[o+]c2c1 [Dye V02-07108]	569 nm	475 nm	18,340	468 nm	564 nm	496 nm	565 nm	572 nm	21,140	479 nm	475 nm	18,348	468 nm	568 nm	–	–	–	–
